{"sequences": {"note": "Protein sequences, listed by entry. Tags and fused reporters are not part of them. Lines headed by an entry give the natural chain unless they say otherwise; changes in a name come on top.", "UniProt O00167": "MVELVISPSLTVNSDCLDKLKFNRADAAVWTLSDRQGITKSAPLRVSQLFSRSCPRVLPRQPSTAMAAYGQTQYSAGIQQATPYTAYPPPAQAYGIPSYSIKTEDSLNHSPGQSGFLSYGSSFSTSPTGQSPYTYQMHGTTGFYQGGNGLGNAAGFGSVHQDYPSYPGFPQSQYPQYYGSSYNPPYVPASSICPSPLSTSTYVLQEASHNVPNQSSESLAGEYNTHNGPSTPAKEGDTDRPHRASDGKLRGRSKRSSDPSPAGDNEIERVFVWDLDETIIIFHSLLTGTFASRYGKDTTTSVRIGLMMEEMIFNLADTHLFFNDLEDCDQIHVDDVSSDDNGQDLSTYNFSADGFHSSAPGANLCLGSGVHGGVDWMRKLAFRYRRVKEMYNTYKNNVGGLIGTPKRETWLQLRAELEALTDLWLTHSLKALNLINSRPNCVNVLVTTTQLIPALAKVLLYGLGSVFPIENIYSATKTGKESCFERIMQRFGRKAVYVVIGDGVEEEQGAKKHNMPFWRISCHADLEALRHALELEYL"}, "source": "PubChem BioAssay AID488837", "about": "(National Center for Advancing Translational Sciences (NCATS), 2010)", "note": "The campaign covered roughly 330,000 compounds. About 20 (0.006%) were called active. Inconclusive means that the source gave no clear call. Such entries were picked first, then a sample of the others. Calls come from the whole dose curve; as a rule, active = well fitted inhibition curve with a large enough effect; inconclusive = small, poorly fitted or top-dose-only effect, or effect the other way; inactive = flat fitted curve, though single readings scatter. Potencies of inconclusive entries are doubtful fits and often do not repeat. % is set by controls: 0 for no effect and ±100 for the full control effect; potency is the fitted concentration of half-maximal effect."}
{"molecular_target": "Protein phosphatase EYA2 (Homo sapiens) (UniProt O00167)", "test": "qHTS Assay for Inhibitors of the Phosphatase Activity of Eya2", "conditions": "recombinant Eya2, OMFP fluorescence dephosphorylation (OMFP is methylfluorescein phosphate); activity, negative = inhibition: at 76.9 µM (top of the series) unless noted", "in_short": "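Eya2 protein (added as 0.2 uM solution) was preincubated with compound for 10 min at ambient temperature in 50 mM HEPES pH 7.5, 50 mM NaCl, 5 uM MgCl2, 0.05% BSA, 1 mM DTT. OMFP (added at 50 uM) then reacted 10 min; fluorescence read at 485/525 nm.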"}
{"smiles": "CCN1C/C(=C/c2cccs2)c2nc3ccccc3c(C(=O)O)c2C1", "Potency": "inactive"}
{"smiles": "Oc1ccc(/C=N/N2CCOCC2)c(O)c1O", "Potency": "inactive"}
{"smiles": "O=C(NC(c1ccccc1)c1cc(Cl)c2cccnc2c1O)c1cccnc1", "note": "(stereo unspecified)", "Potency": "inactive"}
{"smiles": "CCOc1ccc(S(=O)(=O)N2CCN(C(=O)c3sccc3C)CC2)cc1", "Potency": "inconclusive: 20 µM [inhibitor, partial curve]"}
{"smiles": "O=C1N=C(N2CCC(Cc3ccccc3)CC2)S/C1=C/c1cn[nH]c1-c1ccccc1", "Potency": "inconclusive: 50.1 µM [inhibitor, partial curve, poor fit]"}
{"smiles": "Cc1nc2ccccc2c2ncccc12", "Potency": "inconclusive: 141 µM [inhibitor, partial curve, poor fit]"}
{"smiles": "COC(=O)N/N=C/c1ccc(-c2cc(Cl)ccc2Cl)o1", "Potency": "inactive"}
{"smiles": "CN(Cc1ccccc1)C(=O)C1CCCN1S(=O)(=O)c1ccc2c(c1)n(C)c(=O)c(=O)n2C", "note": "(stereo unspecified)", "Potency": "inconclusive: 200 µM [inhibitor, partial curve]"}
{"smiles": "CN(C)Cc1cc(O)c(CN(C)C)cc1O", "Potency": "inactive"}
{"smiles": "CCc1noc(C)c1C(=O)NNC(=O)c1cc(OC)cc(OC)c1", "Potency": "inactive"}
{"smiles": "Cc1ccccc1NC(=O)c1c(C)[nH]c(=S)c(C#N)c1-c1ccc(Cl)cc1", "Potency": "inconclusive: 20 µM [inhibitor, single point]"}
{"smiles": "COc1cc(/C=C2/NC(=O)N(Cc3ccccc3F)C2=O)cc(OC)c1O", "Potency": "inactive"}
{"smiles": "c1ccc(-c2ccccc2OCCCN2CCOCC2)cc1", "Potency": "inconclusive: 79.4 µM [inhibitor, partial curve]"}
{"smiles": "O=C(O)c1ccc(CNCc2cccc(Oc3ccccc3)c2)cc1", "Potency": "inconclusive: 22.4 µM [inhibitor, single point]"}
{"smiles": "O=C(N/N=C/c1ccc(OCCCF)cc1)c1cc(OCC(F)(F)F)ccc1OCC(F)(F)F", "Potency": "inactive"}
{"smiles": "COc1ccc(OCc2nnc(SC3CCOC3=O)n2-c2ccccc2)cc1", "note": "(stereo unspecified)", "Potency": "inconclusive: 17.8 µM [inhibitor, single point]"}
{"smiles": "Cc1ccc(C)c(NS(=O)(=O)c2csc(C(N)=O)c2)c1", "Potency": "inconclusive: 89.1 µM [inhibitor, single point]"}
{"smiles": "CS(=O)(=O)Nc1ccc(S(=O)(=O)N2CCCCCC2)cc1", "Potency": "inconclusive: 100000 µM [inhibitor, partial curve, poor fit]"}
{"smiles": "CCCCCOC(=O)CSc1n[nH]c(=O)[nH]c1=O", "Potency": "inconclusive: 70.8 µM [inhibitor, single point]"}
{"smiles": "Cc1ccccc1Nc1nc(N)nc(CCl)n1", "Potency": "inconclusive: 100 µM [inhibitor, single point]"}
{"smiles": "COC(=O)c1ccc(C)c(N(CCO)CCO)c1", "Potency": "inactive"}
{"smiles": "CCN1/C(=C/C=C/C=C/c2sc3ccccc3[n+]2CC)Sc2ccccc21", "Potency": "inactive"}
{"smiles": "O=C1NC(=O)/C(=C/c2ccc3c(c2)OC(F)(F)O3)S1", "Potency": "inactive"}
{"smiles": "CCOC(=O)Cc1csc(NS(=O)(=O)c2ccc(SC)cc2)n1", "Potency": "inconclusive: 126 µM [inhibitor, single point]"}
{"smiles": "O=C(Nc1cccc(O)c1)c1cc(-c2ccccc2Cl)on1", "Potency": "inconclusive: 17.8 µM [inhibitor, single point]"}
{"smiles": "O=C(CN1CCCCC1)Nc1ccccc1C(=O)NC1CC1", "Potency": "inconclusive: 44.7 µM [inhibitor, single point]"}
{"smiles": "Cc1ccc(NC(=S)NCCc2c[nH]c3ccccc23)cc1", "Potency": "inactive"}
{"smiles": "Cc1nc2ccccn2c1-c1csc(Nc2cccc(O)c2)n1", "Potency": "inconclusive: 25.1 µM [inhibitor, partial curve]"}
{"smiles": "CC(/C=C/c1ccco1)=N\\NC(=O)CNc1ccc2ccccc2c1", "Potency": "inactive"}
{"smiles": "Cc1ccc(-c2ccnc3c(Br)c(C)nn23)cc1", "Potency": "inconclusive: 31.6 µM [inhibitor, partial curve, poor fit]"}
{"smiles": "COCCn1c(=N)c(S(=O)(=O)c2ccc(F)cc2)cc2c(=O)n3ccccc3nc21", "Potency": "inactive"}
{"smiles": "COC(=O)c1cnc(Oc2ccc(NC(=O)NC(=O)c3c(F)cccc3Cl)cc2)cc1C(F)(F)F", "Potency": "inconclusive: 100 µM [inhibitor, single point]"}
{"smiles": "COc1ccc([C@]23Cc4cc(C#N)ccc4C(O2)C2=C(CC4(CCCCC4)OC2=O)O3)cc1", "activity, negative = inhibition": "inactive: 14.3% [at 15.4 µM]"}
{"smiles": "CCOC(=O)c1c(NC(=O)CN2CCCCC2)sc2c1CCN(C(=O)OCC)C2", "Potency": "inactive"}
{"smiles": "Cc1cccc(C)c1OCc1nnc(SCC(=O)Nc2nccs2)o1", "Potency": "inconclusive: 89.1 µM [inhibitor, single point]"}
{"smiles": "CC(=O)[C@@H]1[C@@H]2C(=O)N(C3CCCCC3)C(=O)[C@@H]2C2c3ccccc3C=CN21", "note": "(stereo partly specified)", "Potency": "inactive"}
{"smiles": "CCOC(=O)COc1cccc2c(=O)n(CC(=O)NCc3ccc(F)cc3)ccc12", "Potency": "inconclusive: 100 µM [inhibitor, single point]"}
{"smiles": "COC(=O)c1ccccc1-c1c2ccc(=N)cc-2oc2cc(N)ccc12", "Potency": "inconclusive: 15.8 µM [activator, partial curve]"}
{"smiles": "C=CCn1c(=O)c(C(=O)Nc2ccc(C)cn2)c(O)c2ccccc21", "Potency": "inconclusive: 15.8 µM [inhibitor, single point]"}
{"smiles": "CCOC(=O)CSc1nc(C(C)C)nc2sc(C)c(C)c12", "Potency": "inconclusive: 100 µM [inhibitor, single point]"}
{"smiles": "C=CCn1c(C)csc1=Nc1ccccc1C", "Potency": "inconclusive: 25.1 µM [inhibitor, partial curve, poor fit]"}
{"smiles": "CC1CCCN(C(=O)C(=O)Nc2ccc3nc4n(c(=O)c3c2)CCCCC4)C1", "note": "(stereo unspecified)", "Potency": "inconclusive: 17.8 µM [inhibitor, single point]"}
{"smiles": "O=C(NCc1cccs1)C1CCCN1C(=O)Nc1ccc(F)cc1", "note": "(stereo unspecified)", "Potency": "inconclusive: 100 µM [inhibitor, single point]"}
{"smiles": "Cn1c(=O)cc(OCC(=O)NCc2cccnc2)c2ccccc21", "Potency": "inconclusive: 20 µM [inhibitor, single point]"}
{"smiles": "Cc1[nH]n(-c2ccccc2)c(=O)c1/C=N\\NC(=O)C1COc2ccccc2O1", "note": "(stereo unspecified)", "Potency": "inactive"}
{"smiles": "N#C/C(=C/c1ccc(N2CCCCC2)o1)C(=O)Nc1ccc2ccccc2c1", "Potency": "inconclusive: 15.8 µM [activator, partial curve]"}
{"smiles": "COc1ccc(OCc2cccc(C(=O)O)c2)cc1", "Potency": "inactive"}
{"smiles": "COc1ccccc1N1CCN(C2CCCN(C(=O)c3ccccn3)C2)CC1", "note": "(stereo unspecified)", "Potency": "inconclusive: 25.1 µM [inhibitor, single point]"}
{"smiles": "CCS(=O)(=O)N1CCCC(C(=O)NCCCOC)C1", "note": "(stereo unspecified)", "Potency": "inconclusive: 89.1 µM [inhibitor, single point]"}
{"smiles": "COc1ccc(Nc2c(-c3ccc(C)cc3)nc3cnccn23)cc1", "Potency": "inconclusive: 178 µM [inhibitor, partial curve, poor fit]"}
{"smiles": "CCOc1ccc(C2Nc3cccc4cccc(c34)N2)cc1OC", "Potency": "inactive"}
{"smiles": "NNC(=O)CSCc1nc(-c2ccccc2)cs1", "Potency": "inconclusive: 89.1 µM [inhibitor, single point]"}
{"smiles": "CC1=C(C(N)=O)C(c2ccc3c(c2)OCO3)n2nc(-c3cccc(C)c3)nc2N1", "note": "(stereo unspecified)", "Potency": "inconclusive: 112 µM [inhibitor, single point]"}
{"smiles": "CN(C=[N+](C)C)c1cccc2c1C(=O)c1ccccc1C2=O", "Potency": "inactive"}
{"smiles": "COc1ccc2c(c1)[nH]c1c(=O)n(CCN3CCCC3)cnc12", "Potency": "inconclusive: 126 µM [inhibitor, single point]"}
{"smiles": "O=C(NC(=S)Nc1ccccc1)C1CCCCC1", "Potency": "inactive"}
{"smiles": "Cc1cc(C)n(CCC(=O)Nc2ccc(-c3ccno3)cc2)n1", "Potency": "inconclusive: 2240 µM [inhibitor, single point]"}
{"smiles": "CC(CP(=O)(O)O)NC(=O)Cc1ccccc1", "note": "(stereo unspecified)", "Potency": "inactive"}
{"smiles": "COc1ccc(NC(C)=O)cc1NC(=O)CN1CCN(CC(=O)Nc2ccc(Cl)cc2)CC1", "Potency": "inconclusive: 63.1 µM [inhibitor, partial curve, poor fit]"}
{"smiles": "O=C(CC1Oc2ccccc2NC1=O)NCCCN1CCOCC1", "note": "(stereo unspecified)", "Potency": "inconclusive: 14.1 µM [inhibitor, single point]"}
{"smiles": "O=C(Nc1cccn(Cc2c(Cl)cccc2Cl)c1=O)c1ccc(Cl)cc1Cl", "Potency": "inconclusive: 89.1 µM [inhibitor, single point]"}
{"smiles": "Cc1ccc(S(=O)(=O)N2CCCC(C(=O)NCc3ccccc3F)C2)cc1", "note": "(stereo unspecified)", "Potency": "inconclusive: 12.6 µM [inhibitor, single point]"}
{"smiles": "Cc1c(OCC(=O)NC(Cc2ccc(Cl)cc2)C(=O)O)ccc2c3c(c(=O)oc12)CCCC3", "note": "(stereo unspecified)", "Potency": "inconclusive: 100 µM [inhibitor, single point]"}
{"smiles": "O=C(NCCN1CCCCC1)c1cc(Cl)ccc1Cl", "Potency": "inconclusive: 17.8 µM [inhibitor, single point]"}
{"smiles": "CC(=O)Nc1ccc(S(=O)(=O)Oc2ccc(N3C(=O)C4CCCCC4C3=O)cc2)cc1", "note": "(stereo unspecified)", "Potency": "inconclusive: 398 µM [inhibitor, partial curve, poor fit]"}
{"smiles": "Cc1ccc(N(CC(=O)NC(C)C)C(=O)CCC(=O)Nc2nccs2)cc1", "Potency": "inconclusive: 355 µM [inhibitor, partial curve]"}
{"smiles": "COc1cccc(Nc2nc(-c3cccc(N4C(=O)c5ccccc5C4=O)c3)cs2)c1", "Potency": "inconclusive: 89.1 µM [inhibitor, single point]"}
{"smiles": "O=C(Nc1ccccc1)Nc1ccc(-n2ccc(C(F)(F)F)n2)cc1", "Potency": "inconclusive: 89.1 µM [inhibitor, single point]"}
{"smiles": "COc1ccccc1NC(=O)c1cccc2c(Br)cccc12", "Potency": "inconclusive: 22.4 µM [inhibitor, single point]"}
{"smiles": "C=CCc1cccc(CNc2ccc(S(=O)(=O)Nc3nccnc3OC)cc2)c1O", "Potency": "inconclusive: 15.8 µM [inhibitor, single point]"}
{"smiles": "O=[N+]([O-])c1ccc(N2CCCC2)cc1NCc1ccccc1", "activity, negative = inhibition": "inconclusive: 33.4% [activator]"}
